Measured values published in patent US20210332350A1.
No constants are given. Whether binding was seen depends on the method and setting. Some results given as binding are weak or reduced against the parent protein; the word gives no strength.

By UniProt entry, the sequences of proteins in these tests, tags left out. Residues count along the entry.
UniProt P0AGE0, residues 2-178: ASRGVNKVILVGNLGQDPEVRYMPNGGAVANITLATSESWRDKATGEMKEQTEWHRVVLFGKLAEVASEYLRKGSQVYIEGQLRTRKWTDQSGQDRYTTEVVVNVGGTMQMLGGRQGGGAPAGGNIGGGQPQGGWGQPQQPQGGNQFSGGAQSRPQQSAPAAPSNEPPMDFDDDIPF

Target: E. coli single-strand DNA-binding protein (SSB) (Escherichia coli) (UniProt P0AGE0)
Experiment: inferred from the fluorescent oligo quenching assay with SSB-coated complementary oligos; no direct binding assay

λ β (λ Red beta, full length wild type) with N-terminal 6×His tag (from UniProt P03698 1-261)
binding: binds
